Experimental data as given in the supplement of paper PMC10849652.
The other results are listed elsewhere or left out.

Chains of the proteins cited; added tags and fusions are not shown. Lines headed by an entry give the natural chain unless they say otherwise; changes in a name come on top.
UniProt Q96DU7: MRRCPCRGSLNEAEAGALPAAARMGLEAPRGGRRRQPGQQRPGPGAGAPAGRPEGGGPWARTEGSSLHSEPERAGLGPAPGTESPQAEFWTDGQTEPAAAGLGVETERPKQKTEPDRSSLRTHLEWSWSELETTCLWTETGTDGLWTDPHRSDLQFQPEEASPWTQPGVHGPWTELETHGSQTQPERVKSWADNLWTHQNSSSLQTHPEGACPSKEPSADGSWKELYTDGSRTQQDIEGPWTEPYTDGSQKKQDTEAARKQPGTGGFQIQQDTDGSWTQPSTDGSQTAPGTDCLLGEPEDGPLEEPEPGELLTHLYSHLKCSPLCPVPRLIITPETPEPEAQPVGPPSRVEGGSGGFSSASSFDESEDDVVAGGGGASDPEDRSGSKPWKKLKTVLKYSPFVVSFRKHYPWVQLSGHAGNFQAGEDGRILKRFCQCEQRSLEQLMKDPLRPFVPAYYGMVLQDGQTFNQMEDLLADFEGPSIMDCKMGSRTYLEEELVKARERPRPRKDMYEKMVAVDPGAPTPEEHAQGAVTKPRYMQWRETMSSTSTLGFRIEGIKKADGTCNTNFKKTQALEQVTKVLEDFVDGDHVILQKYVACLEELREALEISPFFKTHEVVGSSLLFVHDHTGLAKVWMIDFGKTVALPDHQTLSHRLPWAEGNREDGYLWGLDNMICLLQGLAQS
UniProt O43736: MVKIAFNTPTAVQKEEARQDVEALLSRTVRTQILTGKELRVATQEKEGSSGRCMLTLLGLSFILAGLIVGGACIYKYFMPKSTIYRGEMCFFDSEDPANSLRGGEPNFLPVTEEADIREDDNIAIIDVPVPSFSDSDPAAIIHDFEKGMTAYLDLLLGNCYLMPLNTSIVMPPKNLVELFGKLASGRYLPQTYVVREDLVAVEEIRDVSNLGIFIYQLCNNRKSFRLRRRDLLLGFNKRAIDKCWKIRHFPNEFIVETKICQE
UniProt Q15051: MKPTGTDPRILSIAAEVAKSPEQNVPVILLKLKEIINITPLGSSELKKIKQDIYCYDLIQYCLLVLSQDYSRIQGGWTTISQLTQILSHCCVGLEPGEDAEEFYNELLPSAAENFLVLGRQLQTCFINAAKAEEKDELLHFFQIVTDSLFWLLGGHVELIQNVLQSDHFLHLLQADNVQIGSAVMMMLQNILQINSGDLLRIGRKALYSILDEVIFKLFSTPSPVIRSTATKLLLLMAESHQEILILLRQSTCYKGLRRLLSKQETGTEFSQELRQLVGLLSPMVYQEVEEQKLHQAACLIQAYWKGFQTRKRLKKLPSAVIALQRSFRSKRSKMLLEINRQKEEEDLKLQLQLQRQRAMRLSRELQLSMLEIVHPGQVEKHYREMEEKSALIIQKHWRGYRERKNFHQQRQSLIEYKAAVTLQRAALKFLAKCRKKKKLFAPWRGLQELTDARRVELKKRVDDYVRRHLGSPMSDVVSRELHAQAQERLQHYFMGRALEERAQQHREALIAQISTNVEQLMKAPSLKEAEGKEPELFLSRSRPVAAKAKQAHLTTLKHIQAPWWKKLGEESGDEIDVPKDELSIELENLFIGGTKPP
UniProt P24390: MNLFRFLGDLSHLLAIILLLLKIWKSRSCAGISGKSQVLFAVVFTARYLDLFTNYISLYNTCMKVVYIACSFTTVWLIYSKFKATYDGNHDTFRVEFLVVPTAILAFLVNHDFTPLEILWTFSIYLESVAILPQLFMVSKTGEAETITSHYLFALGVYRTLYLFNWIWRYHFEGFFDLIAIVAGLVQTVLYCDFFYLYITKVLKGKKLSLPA
UniProt P05412, whole entry, looked up: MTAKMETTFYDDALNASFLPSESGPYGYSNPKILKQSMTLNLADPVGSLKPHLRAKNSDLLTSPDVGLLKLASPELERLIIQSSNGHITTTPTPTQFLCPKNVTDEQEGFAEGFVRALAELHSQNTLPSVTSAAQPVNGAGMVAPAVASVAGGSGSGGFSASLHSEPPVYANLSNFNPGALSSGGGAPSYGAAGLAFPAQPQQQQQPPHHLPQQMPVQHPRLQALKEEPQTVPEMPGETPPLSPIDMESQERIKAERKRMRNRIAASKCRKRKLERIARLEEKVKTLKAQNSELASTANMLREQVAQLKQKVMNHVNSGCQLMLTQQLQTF
UniProt Q96AZ6: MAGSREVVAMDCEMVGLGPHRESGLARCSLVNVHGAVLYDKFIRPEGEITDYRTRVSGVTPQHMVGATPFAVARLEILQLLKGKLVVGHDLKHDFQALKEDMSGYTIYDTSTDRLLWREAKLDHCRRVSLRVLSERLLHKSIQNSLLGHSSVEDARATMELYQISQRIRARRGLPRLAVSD
UniProt Q9Y573: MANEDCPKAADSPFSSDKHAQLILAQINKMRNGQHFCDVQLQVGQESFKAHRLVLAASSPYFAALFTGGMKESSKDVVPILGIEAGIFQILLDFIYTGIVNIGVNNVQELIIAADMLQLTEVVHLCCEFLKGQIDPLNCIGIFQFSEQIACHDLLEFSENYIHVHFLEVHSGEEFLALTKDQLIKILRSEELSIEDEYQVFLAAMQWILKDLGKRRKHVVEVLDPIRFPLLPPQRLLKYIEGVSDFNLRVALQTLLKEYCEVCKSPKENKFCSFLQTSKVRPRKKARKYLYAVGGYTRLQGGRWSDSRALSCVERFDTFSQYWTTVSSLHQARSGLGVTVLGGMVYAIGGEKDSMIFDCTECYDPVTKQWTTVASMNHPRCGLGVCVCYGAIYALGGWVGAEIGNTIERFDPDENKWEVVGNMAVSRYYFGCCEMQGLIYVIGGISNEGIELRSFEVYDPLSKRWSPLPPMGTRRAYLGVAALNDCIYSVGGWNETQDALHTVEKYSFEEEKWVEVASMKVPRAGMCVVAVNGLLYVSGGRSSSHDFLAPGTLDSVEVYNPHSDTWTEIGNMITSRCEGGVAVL
UniProt P01591, whole entry, looked up: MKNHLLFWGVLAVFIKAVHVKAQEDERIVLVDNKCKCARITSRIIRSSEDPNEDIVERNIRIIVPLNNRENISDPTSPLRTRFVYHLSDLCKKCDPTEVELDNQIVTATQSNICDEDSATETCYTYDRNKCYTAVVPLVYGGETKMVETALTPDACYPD
UniProt P28290: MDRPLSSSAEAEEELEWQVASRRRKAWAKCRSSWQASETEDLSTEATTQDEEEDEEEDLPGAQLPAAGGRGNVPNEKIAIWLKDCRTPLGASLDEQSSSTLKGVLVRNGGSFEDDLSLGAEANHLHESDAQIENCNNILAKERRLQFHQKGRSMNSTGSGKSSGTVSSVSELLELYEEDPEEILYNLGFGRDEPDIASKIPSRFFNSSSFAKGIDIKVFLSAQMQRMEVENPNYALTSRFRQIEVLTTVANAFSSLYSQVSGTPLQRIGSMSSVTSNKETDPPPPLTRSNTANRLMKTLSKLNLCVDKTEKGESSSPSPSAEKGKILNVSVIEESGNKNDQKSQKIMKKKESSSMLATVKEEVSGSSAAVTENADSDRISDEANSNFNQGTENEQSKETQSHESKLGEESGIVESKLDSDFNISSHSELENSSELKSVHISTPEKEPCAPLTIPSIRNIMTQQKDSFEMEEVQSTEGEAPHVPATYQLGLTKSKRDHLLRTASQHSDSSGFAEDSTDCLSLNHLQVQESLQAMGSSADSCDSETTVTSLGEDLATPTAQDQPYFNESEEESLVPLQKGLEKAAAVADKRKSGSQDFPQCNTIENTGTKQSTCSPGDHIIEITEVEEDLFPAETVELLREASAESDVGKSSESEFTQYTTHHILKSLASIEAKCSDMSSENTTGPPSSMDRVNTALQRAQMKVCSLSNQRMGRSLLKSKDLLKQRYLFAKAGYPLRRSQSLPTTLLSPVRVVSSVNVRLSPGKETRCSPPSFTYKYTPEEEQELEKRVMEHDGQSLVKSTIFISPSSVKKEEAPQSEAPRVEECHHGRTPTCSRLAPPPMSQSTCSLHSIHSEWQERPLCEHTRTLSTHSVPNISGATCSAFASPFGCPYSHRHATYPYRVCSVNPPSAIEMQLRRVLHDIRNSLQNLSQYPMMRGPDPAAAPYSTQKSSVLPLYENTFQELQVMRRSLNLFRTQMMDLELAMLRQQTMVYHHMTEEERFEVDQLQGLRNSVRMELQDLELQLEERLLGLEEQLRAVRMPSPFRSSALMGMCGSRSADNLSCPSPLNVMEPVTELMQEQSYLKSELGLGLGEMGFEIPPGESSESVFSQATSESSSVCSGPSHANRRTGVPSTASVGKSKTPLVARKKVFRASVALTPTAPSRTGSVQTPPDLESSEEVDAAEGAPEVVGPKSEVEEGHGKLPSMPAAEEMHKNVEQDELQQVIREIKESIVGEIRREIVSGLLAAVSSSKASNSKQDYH
UniProt Q8IWB1: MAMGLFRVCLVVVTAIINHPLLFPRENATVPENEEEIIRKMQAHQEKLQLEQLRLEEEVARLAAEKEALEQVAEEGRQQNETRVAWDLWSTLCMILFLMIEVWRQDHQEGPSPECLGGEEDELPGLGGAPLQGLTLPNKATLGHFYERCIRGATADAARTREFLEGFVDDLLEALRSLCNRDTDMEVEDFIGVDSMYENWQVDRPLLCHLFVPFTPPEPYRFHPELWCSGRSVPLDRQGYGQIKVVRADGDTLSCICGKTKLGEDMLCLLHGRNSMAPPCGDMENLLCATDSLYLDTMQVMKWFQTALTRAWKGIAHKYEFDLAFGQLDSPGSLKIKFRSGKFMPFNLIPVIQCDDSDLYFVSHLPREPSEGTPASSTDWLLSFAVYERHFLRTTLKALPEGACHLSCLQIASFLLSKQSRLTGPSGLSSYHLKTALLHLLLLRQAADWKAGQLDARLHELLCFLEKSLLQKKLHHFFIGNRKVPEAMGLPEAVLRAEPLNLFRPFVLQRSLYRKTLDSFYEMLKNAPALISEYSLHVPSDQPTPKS
UniProt Q9UKP3: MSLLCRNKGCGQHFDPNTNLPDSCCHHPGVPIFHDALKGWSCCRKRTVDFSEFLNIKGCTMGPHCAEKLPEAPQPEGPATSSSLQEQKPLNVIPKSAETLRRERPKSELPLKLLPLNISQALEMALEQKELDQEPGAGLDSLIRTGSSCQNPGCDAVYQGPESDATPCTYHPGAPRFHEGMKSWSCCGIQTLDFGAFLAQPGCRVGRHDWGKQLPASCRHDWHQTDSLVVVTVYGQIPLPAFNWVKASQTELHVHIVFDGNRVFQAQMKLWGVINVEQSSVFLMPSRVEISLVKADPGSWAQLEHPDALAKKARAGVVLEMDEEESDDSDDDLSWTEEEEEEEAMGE
UniProt Q9NQX7: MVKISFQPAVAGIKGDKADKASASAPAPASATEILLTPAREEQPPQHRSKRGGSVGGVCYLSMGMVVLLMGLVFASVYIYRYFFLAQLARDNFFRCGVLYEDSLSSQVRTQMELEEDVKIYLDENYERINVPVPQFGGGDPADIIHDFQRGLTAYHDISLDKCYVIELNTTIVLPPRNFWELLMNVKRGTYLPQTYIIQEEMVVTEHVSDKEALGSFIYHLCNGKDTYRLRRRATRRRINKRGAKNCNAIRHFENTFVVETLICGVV
UniProt Q12809: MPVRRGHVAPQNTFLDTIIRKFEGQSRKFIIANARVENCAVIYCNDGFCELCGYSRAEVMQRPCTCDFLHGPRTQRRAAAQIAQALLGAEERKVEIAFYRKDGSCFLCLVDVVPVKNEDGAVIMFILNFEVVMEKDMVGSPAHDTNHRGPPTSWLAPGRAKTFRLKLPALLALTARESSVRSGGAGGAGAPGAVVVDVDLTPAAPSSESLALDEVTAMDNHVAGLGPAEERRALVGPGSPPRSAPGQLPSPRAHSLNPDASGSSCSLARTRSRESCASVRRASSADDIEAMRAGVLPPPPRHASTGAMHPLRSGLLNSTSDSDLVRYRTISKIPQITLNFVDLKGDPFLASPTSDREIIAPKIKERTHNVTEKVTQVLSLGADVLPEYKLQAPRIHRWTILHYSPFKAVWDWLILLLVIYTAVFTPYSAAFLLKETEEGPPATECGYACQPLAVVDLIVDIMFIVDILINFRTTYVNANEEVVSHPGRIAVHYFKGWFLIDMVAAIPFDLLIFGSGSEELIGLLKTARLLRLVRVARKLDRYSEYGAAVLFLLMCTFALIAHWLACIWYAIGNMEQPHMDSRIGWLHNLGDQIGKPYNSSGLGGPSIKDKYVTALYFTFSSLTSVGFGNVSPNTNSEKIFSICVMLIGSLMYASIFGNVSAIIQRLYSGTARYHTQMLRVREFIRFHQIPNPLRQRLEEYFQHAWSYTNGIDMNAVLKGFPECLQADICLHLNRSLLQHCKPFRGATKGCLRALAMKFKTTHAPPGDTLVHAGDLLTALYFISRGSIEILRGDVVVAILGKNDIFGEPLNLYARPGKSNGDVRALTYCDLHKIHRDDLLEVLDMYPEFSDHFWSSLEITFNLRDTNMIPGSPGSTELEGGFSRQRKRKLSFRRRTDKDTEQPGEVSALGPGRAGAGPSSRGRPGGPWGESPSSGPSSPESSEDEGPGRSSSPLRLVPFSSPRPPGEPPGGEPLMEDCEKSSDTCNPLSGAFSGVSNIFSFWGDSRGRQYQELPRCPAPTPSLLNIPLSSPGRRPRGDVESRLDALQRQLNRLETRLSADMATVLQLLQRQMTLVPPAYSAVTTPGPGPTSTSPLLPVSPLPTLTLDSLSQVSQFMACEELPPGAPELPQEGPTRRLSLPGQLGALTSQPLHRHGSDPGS

Key:
Assay in all cases: log2 fold change, soluble protein after heating vs DMSO (PISA); higher = thermal stabilisation; K562 lysate, 10 uM; active = over 0.2 and 3.5 SD of the protein, either way, in both replicates (recomputed)
[1] = compound: Cc1cn(-c2cc(NC(=O)c3ccc(C)c(Nc4nccc(-c5cccnc5)n4)c3)cc(C(F)(F)F)c2)cn1 [nilotinib]
How it was run: (§1)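 A 30 min treatment with 10 μM compound was applied to crude K562 extract at 1 mg/mL protein in PBS pH 7.4 with 1 mM MgCl2. Heating for 3 min spanned 48°C-58°C, after which aliquots were pooled, adjusted to 0.5% NP-40 at 4°C and spun at 21,000xg for 90 min. TMTpro 16plex LC-MS/MS of the supernatant, with channel sums equalised, gave values recorded as log-two fold change in thermal stability against solvent controls, from duplicates.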

[2] = compound: Cc1nc(Nc2n[nH]c3c2CN(C(=O)N[C@H](CN(C)C)c2ccccc2)C3(C)C)c2sccc2n1
How it was run: as §1

[3] = compound: Cc1nc(Nc2ncc(C(=O)Nc3c(C)cccc3Cl)s2)cc(N2CCN(CCO)CC2)n1 [dasatinib]
How it was run: as §1

[4] = compound: Cc1ncc(-c2ccnc(Nc3ccc(S(C)(=O)=O)cc3)n2)n1C(C)C
How it was run: as §1

[5] = compound: Cn1cc(-c2ccc3c(c2)CCN3C(=O)Cc2cccc(C(F)(F)F)c2)c2c(N)ncnc21
How it was run: as §1

[6] = compound: Cn1cc(CNCC2CCN(c3ncc(C(=O)NO)cn3)CC2)c2ccccc21 [quisinostat]
How it was run: as §1

[7] = compound: Cn1cncc1[C@@](N)(c1ccc(Cl)cc1)c1ccc2c(c1)c(-c1cccc(Cl)c1)cc(=O)n2C [tipifarnib]
How it was run: as §1

[8] = compound: NC(=O)Nc1cc(-c2cccc(F)c2)sc1C(=O)N[C@H]1CCCNC1
How it was run: as §1

[9] = compound: NC(=O)c1cnc(N[C@@H]2CCCC[C@@H]2N)nc1Nc1cccc(-n2nccn2)c1
How it was run: as §1

[10] = compound: NC1(c2ccc(-c3nc4ccn5c(=O)[nH]nc5c4cc3-c3ccccc3)cc2)CCC1
How it was run: as §1

Measured: log2 fold change

KCTD9 (UniProt Q7L273)
inactive: [1] 0.061 | [2] -0.035 | [3] -0.05 | [4] 0.02 | [5] -0.009 | [6] 0.025 | [7] 0.054 | [8] -0.003 | [9] -0.02 | [10] 0.091

ITIH2 (UniProt P19823)
inactive: [1] 0.043 | [2] 0.03 | [4] -0.006 | [6] -0.012 | [7] 0.014 | [8] 0.046 | [9] -0.031

ITFG2 (UniProt Q969R8)
inactive: [1] -0.01 | [2] -0.049 | [3] -0.048 | [4] -0.016 | [5] -0.034 | [6] 0.019 | [7] 0.028 | [8] 0.008 | [9] 0.025 | [10] 0.005

INTS3 (UniProt Q68E01)
inactive: [1] -0.007 | [2] 0.007 | [3] -0.05 | [4] -0.045 | [5] 0.005 | [6] -0.038 | [7] 0.09 | [8] 0.028 | [9] -0.002 | [10] -0.028

ITPR2 (UniProt Q14571)
inactive: [1] -0.008 | [2] -0.081 | [3] 0.019 | [4] 0.048 | [5] -0.078 | [7] 0.003 | [9] 0.277 | [10] -0.12

KCNN4 (UniProt O15554)
inactive: [1] -0.172 | [2] -0.029 | [4] 0.19 | [6] 0.047 | [7] 0.197 | [8] 0.081 | [9] -0.014 | [10] 0.103

IRF2BP1 (UniProt Q8IU81)
inactive: [1] 0.018 | [2] 0.016 | [3] -0.082 | [4] -0.019 | [5] 0.032 | [6] -0.099 | [7] -0.124 | [8] 0.057 | [9] -0.03 | [10] 0.045

KATNBL1 (UniProt Q9H079)
inactive: [1] -0.057 | [2] -0.143 | [3] 0.068 | [4] -0.159 | [5] -0.073 | [6] 0.035 | [7] 0.198 | [8] 0.158 | [9] 0.017 | [10] 0.023

ITPKC (UniProt Q96DU7)
inactive: [1] 0.004 | [2] -0.024 | [3] -0.047 | [4] -0.072 | [5] -0.004 | [6] -0.126 | [7] 0.074 | [8] 0.041 | [10] -0.021

ITGB1BP1 (UniProt O14713)
inactive: [1] -0.013 | [2] 0.104 | [3] -0.036 | [4] 0.002 | [5] 0.072 | [7] 0.038 | [9] -0.069 | [10] -0.123

IQSEC2 (UniProt Q5JU85)
inactive: [1] 0.044 | [2] -0.063 | [3] 0.174 | [4] -0.142 | [5] 0.179 | [6] -0.05 | [7] -0.004 | [8] 0.032 | [9] 0.072 | [10] -0.018

ISG20L2 (UniProt Q9H9L3)
inactive: [1] -0.028 | [2] 0 | [3] 0.069 | [4] 0.329 | [5] 0.017 | [7] 0.057 | [9] 0.084 | [10] -0.072

ITM2A (UniProt O43736)
inactive: [1] -0.199 | [2] -0.228 | [3] 0.118 | [4] 0.263 | [5] -0.02 | [7] 0.065 | [9] 0.093 | [10] -0.1

IQCB1 (UniProt Q15051)
inactive: [1] -0.069 | [2] -0.197 | [3] 0.098 | [4] 0.163 | [5] 0.155 | [7] 0.084 | [10] -0.1

KAT5 isoform 3 (UniProt Q92993)
inactive: [1] 0.183 | [2] 0.104 | [3] -0.167 | [4] 0 | [5] 0.18 | [6] -0.111 | [7] -0.4 | [8] 0.065 | [9] 0.023 | [10] 0.192

KDELR1 (UniProt P24390)
inactive: [3] -0.002 | [5] 0.029 | [6] -0.094 | [8] -0.02 | [9] -0.035 | [10] -0.027

INTS6L (UniProt Q5JSJ4)
inactive: [3] -0.033 | [5] 0.224 | [9] 0.097 | [10] -0.075

IQCD (UniProt Q96DY2)
inactive: [1] -0.153 | [2] 0.064 | [4] 0.109 | [7] 0.069 | [9] -0.024

JUN (UniProt P05412)
inactive: [3] -0.035 | [5] 0.009 | [6] 0.004 | [8] -0.002 | [9] 0.04 | [10] -0.011

IQUB (UniProt Q8NA54)
inactive: [9] -0.003

ITFG2 (UniProt H0YGR0)
inactive: [3] 0.001 | [5] 0.101 | [9] 0.062

ITGAE (UniProt P38570)
inactive: [1] 0.024 | [2] -0.12 | [4] -0.046 | [7] 0.073 | [9] 0.021 | [10] -0.133

KALRN (UniProt O60229)
inactive: [6] -0.044 | [8] 0.034

ISG20 (UniProt Q96AZ6)
inactive: [3] -0.108 | [5] 0.061 | [10] -0.076

JADE2 (UniProt Q9NQC1)
inactive: [3] 0 | [5] 0.03

ITPR1 (UniProt Q14643)
inactive: [6] 0.052 | [8] 0.027 | [9] 0.151

IPP (UniProt Q9Y573)
inactive: [3] -0.244 | [5] 0.03 | [9] -0.097 | [10] 0.093

JAK3 (UniProt P52333)
inactive: [6] 0.131 | [8] 0.008 | [9] -0.056

2 records drawn at random from the list so far, as already listed:
ISG20 (UniProt Q96AZ6)
inactive: [3] -0.108 | [5] 0.061 | [10] -0.076

IPP (UniProt Q9Y573)
inactive: [3] -0.244 | [5] 0.03 | [9] -0.097 | [10] 0.093

Going on with the list:

JMY (UniProt Q8N9B5)
inactive: [3] -0.073 | [5] -0.51 | [6] -0.183 | [8] -0.205 | [10] -0.092

JCHAIN (UniProt P01591)
inactive: [6] 0.389 | [8] -0.281 | [10] 1.17

ITPRID2 (UniProt P28290)
inactive: [1] 0.007 | [2] 0.082 | [4] -0.07 | [7] -0.154 | [9] 0.012 | [10] -0.034

ITPRIP (UniProt Q8IWB1)
inactive: [3] -0.017 | [5] 0.005 | [10] 0.06

ITGB1BP2 (UniProt Q9UKP3)
inactive: [3] -0.104 | [5] 0.249

ISL2 (UniProt Q96A47)
inactive: [3] 0.015 | [5] 0.053 | [6] 0.055 | [8] -0.092 | [10] 0.014

ITPR3 (UniProt Q14573)
inactive: [6] -0.122 | [8] -0.067 | [9] 0.028 | [10] -0.472

KANK2 isoform 2 (UniProt Q63ZY3)
inactive: [3] -0.046 | [5] -0.098 | [9] -0.035

KBTBD7 (UniProt Q8WVZ9)
inactive: [3] 0.023 | [5] 0.002 | [6] -0.077 | [8] 0 | [9] -0.053 | [10] 0.036

KDM2B (UniProt Q8NHM5)
inactive: [6] -0.177 | [8] 0.05 | [10] -0.082

KAT6B (UniProt Q8WYB5)
inactive: [3] -0.12 | [5] -0.006 | [6] -0.244 | [8] -0.003 | [9] 0.009 | [10] -0.069

ITM2C (UniProt Q9NQX7)
inactive: [3] -0.098 | [5] 0.084 | [6] 0.287 | [8] -0.037 | [9] -0.001 | [10] 0.019

KCNH2 (UniProt Q12809)
inactive: [6] -0.117

KAT14 (UniProt Q9H8E8)
inactive: [9] -0.006 | [10] 0.1

KAZN isoform 3 (UniProt Q674X7)
inactive: [6] 0.016 | [8] 0.133 | [10] -0.003

JAK1 (UniProt P23458)
inactive: [6] -0.087 | [8] 0.093

KANSL2 (UniProt Q9H9L4)
inactive: [6] -0.024 | [8] 0.006 | [10] 0.023
